Measurements as given in publication doi:10.1101/227918.

Amino acid sequences for entries named in this document (tags omitted). A change or cut given only in a name is not applied to a line headed by its entry.
UniProt O14672: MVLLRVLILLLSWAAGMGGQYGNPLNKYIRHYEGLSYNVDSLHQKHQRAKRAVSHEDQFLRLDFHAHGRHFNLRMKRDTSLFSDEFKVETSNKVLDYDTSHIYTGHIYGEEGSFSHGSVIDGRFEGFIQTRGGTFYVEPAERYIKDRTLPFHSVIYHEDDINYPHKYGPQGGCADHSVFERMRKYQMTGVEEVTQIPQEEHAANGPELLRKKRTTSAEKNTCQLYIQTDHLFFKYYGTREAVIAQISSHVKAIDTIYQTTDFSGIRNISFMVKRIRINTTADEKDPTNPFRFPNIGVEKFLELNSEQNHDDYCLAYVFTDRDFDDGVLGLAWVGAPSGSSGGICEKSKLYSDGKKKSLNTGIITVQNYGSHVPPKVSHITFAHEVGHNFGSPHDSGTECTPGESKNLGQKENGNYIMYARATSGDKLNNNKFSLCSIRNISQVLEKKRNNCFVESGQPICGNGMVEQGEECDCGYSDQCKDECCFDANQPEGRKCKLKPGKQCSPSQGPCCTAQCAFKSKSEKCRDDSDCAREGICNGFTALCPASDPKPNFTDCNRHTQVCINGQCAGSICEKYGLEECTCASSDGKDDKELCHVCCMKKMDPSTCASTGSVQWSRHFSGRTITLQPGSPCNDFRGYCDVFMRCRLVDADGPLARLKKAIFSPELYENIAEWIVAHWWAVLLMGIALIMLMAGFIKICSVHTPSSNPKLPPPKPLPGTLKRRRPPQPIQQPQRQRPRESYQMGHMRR

Target: T1, FLAG-tagged Tspan14 (human) (UniProt Q8NG11)
T1 sequence: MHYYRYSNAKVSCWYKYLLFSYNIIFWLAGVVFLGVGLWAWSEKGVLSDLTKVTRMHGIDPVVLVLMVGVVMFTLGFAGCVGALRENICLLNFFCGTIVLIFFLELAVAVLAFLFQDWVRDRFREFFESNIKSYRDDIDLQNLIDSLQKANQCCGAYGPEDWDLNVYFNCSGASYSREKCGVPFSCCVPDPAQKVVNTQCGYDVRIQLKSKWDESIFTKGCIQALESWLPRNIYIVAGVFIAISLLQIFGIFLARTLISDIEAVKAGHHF
Assay: co-IP

- binding: binds
Substance: MYC-tagged ADAM10 (from UniProt O14672) (enzyme)

No constants are given. Whether binding was seen depends on the method and setting. Binding seen in cells or lysates may run through a third protein. Binding can be weak; no strength is given. Where a sequence is shown, tags or fusion partners need not be part of it.
